Results: the supplement of paper PMC4604168 (melanoma cell lines)
The other results are listed elsewhere or left out. Many values rest on one well or one pass, so single values are uncertain.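 Cells were imaged in 1,536-well plates, and nuclei stained with an antibody against cleaved PARP were counted against all DNA-stained nuclei to give the apoptosis fraction. Screening doses were chosen to leave most cells alive, and resting and induced cleaved-PARP levels differ strongly between cell lines.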

Key:
Experiment in all cases: cleaved PARP positive nuclei fraction relative to DMSO control; melanoma cells; higher = more apoptosis
Settings in all cases: library dose: low library concentration; 72 h
MZ2-MEL = test system: MZ2-MEL
MeWo = test system: MeWo
RPMI7951 = test system: RPMI7951
RVH-421 = test system: RVH-421
SkMel28 = test system: SkMel28
SkMel2 = test system: SkMel2
SkMel30 = test system: SkMel30
SkMel5 = test system: SkMel5
UACC257 = test system: UACC257
UACC62 = test system: UACC62
WM115 = test system: WM115
WM1716 = test system: WM1716
WM1745 = test system: WM1745
WM3526 = test system: WM3526
WM3619 = test system: WM3619
WM451Lu = test system: WM451Lu

Structure (SMILES)	cleaved PARP positive nuclei fraction (MZ2-MEL) [%]	cleaved PARP positive nuclei fraction (MeWo) [%]	cleaved PARP positive nuclei fraction (RPMI7951) [%]	cleaved PARP positive nuclei fraction (RVH-421) [%]	cleaved PARP positive nuclei fraction (SkMel28) [%]	cleaved PARP positive nuclei fraction (SkMel2) [%]	cleaved PARP positive nuclei fraction (SkMel30) [%]	cleaved PARP positive nuclei fraction (SkMel5) [%]	cleaved PARP positive nuclei fraction (UACC257) [%]	cleaved PARP positive nuclei fraction (UACC62) [%]	cleaved PARP positive nuclei fraction (WM115) [%]	cleaved PARP positive nuclei fraction (WM1716) [%]	cleaved PARP positive nuclei fraction (WM1745) [%]	cleaved PARP positive nuclei fraction (WM3526) [%]	cleaved PARP positive nuclei fraction (WM3619) [%]	cleaved PARP positive nuclei fraction (WM451Lu) [%]
OCc1c[nH]c2ccccc12 [Indole-3-carbinol] + CCCCCCCCCCCC1=C(O)C(=O)C=C(O)C1=O [Embelin] (first compound 0.8 µM, partner dose 1.2 µM)	128	97.2	39.7	193	65.7	131	159	223	128	55.5	49.1	140	88.2	72.7	88.7	87.4
CC(=O)c1c(C)c2cnc(Nc3ccc(N4CCNCC4)cn3)nc2n(C2CCCC2)c1=O [palbociclib] + O=c1cc(-c2cccc3c2Sc2ccccc2S3)oc(N2CCOCC2)c1 [KU55933] (first compound 0.04 µM, partner dose 1 µM)	106	60.9	168	55.4	125	71.7	73.5	202	154	148	81.9	44.5	113	196	135	204
COc1cc(Nc2ncc(F)c(Nc3ccc4c(n3)NC(=O)C(C)(C)O4)n2)cc(OC)c1OC [Tamatinib] + C[C@@H]1CCN(C(=O)CC#N)C[C@@H]1N(C)c1ncnc2[nH]ccc12 [CP690550] (first compound 0.4 µM, partner dose 1 µM)	115	121	98.2	92.1	201	133	151	94.8	113	115	190	119	125	66.4	187	50.9
C=CCNC1=C2C[C@@H](C)C[C@H](OC)[C@H](O)[C@@H](C)/C=C(\C)[C@H](OC(N)=O)[C@@H](OC)/C=C\C=C(/C)C(=O)NC(=CC1=O)C2=O [Tanespimycin] + c1cc(-c2cnn3cc(-c4ccc(OCCN5CCCCC5)cc4)cnc23)ccn1 [Dorsomorphin] (first compound 0.002 µM, partner dose 0.4 µM)	46.2	35.8	72.6	60.5	87	29.8	109	76.4	444	76.6	112	267	91.5	35.3	108	24.8
CO[C@@H]1[C@H](N(C)C(=O)c2ccccc2)C[C@H]2O[C@]1(C)n1c3ccccc3c3c4c(c5c6ccccc6n2c5c31)C(=O)NC4 [Midostaurin] + Cn1cncc1[C@@](N)(c1ccc(Cl)cc1)c1ccc2c(c1)c(-c1cccc(Cl)c1)cc(=O)n2C [tipifarnib] (first compound 0.08 µM, partner dose 0.01 µM)	183	42.4	484	82.1	162	141	76.5	73.1	188	207	230	118	103	218	94.3	71.8
